Source: CN113667014A
Results are given in words; binding and its absence hold for the method and conditions named. Some binding calls cover weakened binding; strength is not graded here. Sequences can lack the tags named with a protein.

Protein sequences, listed by entry. Tags and fused reporters are not part of them. Residues count along the entry.
UniProt P02769, residues 25-607: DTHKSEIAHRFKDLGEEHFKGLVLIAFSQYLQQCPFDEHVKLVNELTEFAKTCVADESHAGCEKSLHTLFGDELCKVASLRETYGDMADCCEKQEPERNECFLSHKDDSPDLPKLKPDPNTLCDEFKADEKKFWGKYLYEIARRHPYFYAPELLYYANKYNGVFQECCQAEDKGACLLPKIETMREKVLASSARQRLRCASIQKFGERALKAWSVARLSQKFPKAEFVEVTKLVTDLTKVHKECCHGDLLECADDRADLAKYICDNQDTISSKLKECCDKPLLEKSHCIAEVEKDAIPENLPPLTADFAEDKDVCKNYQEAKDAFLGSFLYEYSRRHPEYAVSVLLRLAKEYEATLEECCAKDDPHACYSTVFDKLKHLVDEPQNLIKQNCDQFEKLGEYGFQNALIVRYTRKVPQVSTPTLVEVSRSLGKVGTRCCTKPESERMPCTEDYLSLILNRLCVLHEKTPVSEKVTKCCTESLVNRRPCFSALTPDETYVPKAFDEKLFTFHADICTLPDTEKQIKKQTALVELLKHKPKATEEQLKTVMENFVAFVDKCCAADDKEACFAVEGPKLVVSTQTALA

B1: 原核表达的抗BSA纳米抗体 Unique 3 (pET28a, GST标签, E. coli BL21(DE3)) (VHH, not shown: a dimerising Fc or GST)
VHH: QLQLVESGGGLVQAGGSLRLSCAASGRTFSSYAMGWFRQAPGKERELVAAISRRGGSTYYADSVKGRFTISRDNAKNTVYLQMNSLKPEDTAVYYCNAKSYGSTVRNYWGQGTQVTVSS
B2: 哺乳系统表达的抗BSA纳米抗体 Unique 3 (pcDNA3.1, 293F细胞) (VHH, not shown: large carriers)
VHH: QLQLVESGGGLVQAGGSLRLSCAASGRTFSSYAMGWFRQAPGKERELVAAISRRGGSTYYADSVKGRFTISRDNAKNTVYLQMNSLKPEDTAVYYCNAKSYGSTVRNYWGQGTQVTVSS

Key:
[1] = target: 牛血清白蛋白(BSA) (牛 (bovine)) (UniProt P02769); assay: ELISA on coated BSA (2 ug/mL), nanobody from 2.5 ug/mL in 4-fold dilutions, HRP anti-human IgG secondary
[2] = target: 牛血清白蛋白(BSA) (牛 (bovine)) (UniProt P02769); assay: Western blot with the nanobody as primary antibody (Anti-VHH-HRP secondary); depletion of BSA from Vero culture supernatant with nanobody-coupled magnetic beads

| Binder | binding [1] | binding [2] |
| --- | --- | --- |
| B1 | binds | binds |
| B2 | binds |  |
